From patent publication US10029022B2, “Nuclear medicine diagnostic imaging agent” (Kyoto University, priority 2015, dated 2018)
Some entries share one result that the patent states for a list of compounds.

Tests used:
[1] = target: T1, EGFR (T790M, L858R) (Homo sapiens, UniProt P00533, L858R/T790M); assay: EGFR Tyrosine Kinase Inhibiting Activity Measurement 1 (ADP-Glo), DM; format: biochemical; settings: comment on Table 1
T1 construct: purchased Promega V5324
Experimental: (§1) The measurement was carried out according to the Promega protocol applications guide. That is, a buffer solution (40 mM Tris-HCl, pH 7.5, 20 mM MgCl2, 50 μM DTT and 0.1 mg/mL BSA) was used as a dilute solution. The concentration of each compound started at 100 μM (the final concentration, including 1% DMSO) with 5-fold dilutions with the buffer solution. Thus, ten concentrations of each compound were prepared. The initial concentration of PD158780 alone was set at 10 μM (the final concentration, including 1% DMSO) but it was prepared in the same manner as the compound group. Then, 2 μL of each concentration of each compound thus obtained was added to each well of a 384-well plate. Furthermore, 4 μL (20 ng) of an EGFR Kinase Buffer that came with each EGFR Kinase Enzyme System was added to each well, which then was incubated at room temperature for ten minutes. Subsequently, 4 μL of mixed solution of ATP (10 μM) and Poly(Glu, Tyr) (2 μg) substrate was added to each well, which then was incubated at room temperature for one hour. Then, 10 μL of ADP-Glo™ Reagent (ADP-Glo™ Kinase Assay, Promega) was added to each well, which then was reacted at room temperature for 40 minutes. […] From the data thus obtained, dose-response curves and IC50 were calculated using GraphPad Prism 5 (GraphPad Software, Inc.).

[2] = target: T2, EGFR (L858R) (Homo sapiens, UniProt P00533, L858R); assay: EGFR Tyrosine Kinase Inhibiting Activity Measurement 1 (ADP-Glo), L858R; format: biochemical; settings: comment on Table 1
T2 construct: purchased Promega V5322
Experimental: as §1

FCCOc1cccc(Nc2ncnc3cnc(NCCN4CCOCC4)cc23)c1 [Compound H2, N^4-(3-(2-Fluoroethoxy)phenyl)-N^6-(2-morpholinoethyl)pyrido[3,4-d]pyrimidine-4,6-diamine]
binding affinity to the L858R/T790M-mutated EGFR (DM) (in words) [1]: no binding affinity
binding affinity to the L858R-mutated EGFR (in words) [2]: relatively high binding affinity
